Data as given in the supplement of paper PMC10849652.
Some of the results follow.

Protein sequences, listed by entry. Tags and fused reporters are not part of them. Lines headed by an entry give the natural chain unless they say otherwise; changes in a name come on top.
UniProt Q9UJU2, whole entry, looked up: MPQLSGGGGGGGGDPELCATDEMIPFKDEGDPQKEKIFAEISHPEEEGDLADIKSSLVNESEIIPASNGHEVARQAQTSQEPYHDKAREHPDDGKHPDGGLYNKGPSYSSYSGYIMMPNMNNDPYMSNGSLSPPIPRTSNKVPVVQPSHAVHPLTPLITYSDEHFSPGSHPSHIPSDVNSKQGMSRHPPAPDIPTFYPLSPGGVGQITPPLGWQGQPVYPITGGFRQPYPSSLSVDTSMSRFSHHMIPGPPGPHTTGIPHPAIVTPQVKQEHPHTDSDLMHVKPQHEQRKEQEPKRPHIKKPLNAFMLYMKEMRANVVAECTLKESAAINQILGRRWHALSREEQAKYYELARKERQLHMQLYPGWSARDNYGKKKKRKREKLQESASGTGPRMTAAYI
UniProt P23490: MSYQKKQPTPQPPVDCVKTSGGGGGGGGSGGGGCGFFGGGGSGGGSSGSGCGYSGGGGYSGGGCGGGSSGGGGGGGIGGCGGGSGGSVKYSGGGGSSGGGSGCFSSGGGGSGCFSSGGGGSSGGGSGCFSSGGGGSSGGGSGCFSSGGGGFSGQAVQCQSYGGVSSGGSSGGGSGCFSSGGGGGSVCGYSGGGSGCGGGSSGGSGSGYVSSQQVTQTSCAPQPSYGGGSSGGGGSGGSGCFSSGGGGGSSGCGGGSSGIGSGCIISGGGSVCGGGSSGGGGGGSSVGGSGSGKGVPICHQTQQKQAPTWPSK
UniProt O75197: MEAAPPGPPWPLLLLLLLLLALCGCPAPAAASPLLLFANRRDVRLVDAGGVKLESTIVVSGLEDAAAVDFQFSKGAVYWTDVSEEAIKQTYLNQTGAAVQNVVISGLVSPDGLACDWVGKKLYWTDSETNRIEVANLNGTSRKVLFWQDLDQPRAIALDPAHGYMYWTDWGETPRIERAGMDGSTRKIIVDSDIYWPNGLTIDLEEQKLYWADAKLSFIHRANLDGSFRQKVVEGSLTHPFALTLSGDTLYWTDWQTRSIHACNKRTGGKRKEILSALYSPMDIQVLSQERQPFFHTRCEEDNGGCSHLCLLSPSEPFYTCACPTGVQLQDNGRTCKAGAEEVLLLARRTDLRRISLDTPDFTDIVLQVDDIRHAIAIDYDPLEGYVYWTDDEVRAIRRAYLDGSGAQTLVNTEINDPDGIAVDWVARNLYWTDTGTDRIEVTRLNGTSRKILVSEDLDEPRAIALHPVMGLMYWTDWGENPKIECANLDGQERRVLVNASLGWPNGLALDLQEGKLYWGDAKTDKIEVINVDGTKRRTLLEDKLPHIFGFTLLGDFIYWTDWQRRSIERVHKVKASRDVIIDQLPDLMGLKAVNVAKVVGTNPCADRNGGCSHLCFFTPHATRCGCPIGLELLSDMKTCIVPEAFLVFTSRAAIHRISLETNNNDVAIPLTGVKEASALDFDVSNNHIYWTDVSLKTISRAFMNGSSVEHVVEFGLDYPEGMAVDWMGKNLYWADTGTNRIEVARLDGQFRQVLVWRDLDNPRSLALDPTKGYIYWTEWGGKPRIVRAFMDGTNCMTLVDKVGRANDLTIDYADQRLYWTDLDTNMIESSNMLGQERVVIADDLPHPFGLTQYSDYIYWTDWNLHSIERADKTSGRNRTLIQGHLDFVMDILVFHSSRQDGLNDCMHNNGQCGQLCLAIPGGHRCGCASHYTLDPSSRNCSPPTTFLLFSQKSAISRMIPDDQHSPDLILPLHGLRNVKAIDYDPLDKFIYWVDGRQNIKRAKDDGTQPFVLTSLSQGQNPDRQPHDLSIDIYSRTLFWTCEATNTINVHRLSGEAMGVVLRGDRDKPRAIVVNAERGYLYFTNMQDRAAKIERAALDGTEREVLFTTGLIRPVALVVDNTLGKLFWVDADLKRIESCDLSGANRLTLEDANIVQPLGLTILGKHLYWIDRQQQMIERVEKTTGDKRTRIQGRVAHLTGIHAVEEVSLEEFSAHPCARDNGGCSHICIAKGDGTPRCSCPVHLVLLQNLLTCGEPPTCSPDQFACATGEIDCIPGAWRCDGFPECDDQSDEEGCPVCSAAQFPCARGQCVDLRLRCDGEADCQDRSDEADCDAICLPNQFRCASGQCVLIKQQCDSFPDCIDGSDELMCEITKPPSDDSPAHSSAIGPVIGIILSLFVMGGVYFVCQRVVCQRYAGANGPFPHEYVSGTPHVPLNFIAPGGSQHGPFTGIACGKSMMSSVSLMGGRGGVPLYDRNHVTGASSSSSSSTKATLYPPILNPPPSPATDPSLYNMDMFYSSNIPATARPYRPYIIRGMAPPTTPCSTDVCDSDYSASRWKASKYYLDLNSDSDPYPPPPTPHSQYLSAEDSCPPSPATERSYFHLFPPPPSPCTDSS
UniProt Q86VQ0: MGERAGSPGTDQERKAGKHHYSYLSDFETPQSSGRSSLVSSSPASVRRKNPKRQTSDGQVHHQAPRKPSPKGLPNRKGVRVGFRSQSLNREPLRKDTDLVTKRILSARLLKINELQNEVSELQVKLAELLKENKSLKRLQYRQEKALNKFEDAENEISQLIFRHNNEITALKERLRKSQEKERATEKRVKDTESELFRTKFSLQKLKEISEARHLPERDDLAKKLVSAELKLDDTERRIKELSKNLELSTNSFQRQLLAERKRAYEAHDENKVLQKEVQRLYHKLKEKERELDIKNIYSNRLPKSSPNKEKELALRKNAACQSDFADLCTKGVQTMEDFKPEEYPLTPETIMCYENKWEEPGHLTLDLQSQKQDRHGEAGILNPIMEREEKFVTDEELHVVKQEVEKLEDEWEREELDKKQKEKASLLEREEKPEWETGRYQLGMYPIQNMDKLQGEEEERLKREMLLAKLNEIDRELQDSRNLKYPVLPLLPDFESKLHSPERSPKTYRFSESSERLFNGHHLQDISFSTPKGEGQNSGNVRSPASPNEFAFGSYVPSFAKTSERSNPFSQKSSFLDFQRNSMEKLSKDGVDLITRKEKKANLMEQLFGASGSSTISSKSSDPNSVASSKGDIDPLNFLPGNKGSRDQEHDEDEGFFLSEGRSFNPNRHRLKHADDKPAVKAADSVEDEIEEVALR
UniProt Q53QV2: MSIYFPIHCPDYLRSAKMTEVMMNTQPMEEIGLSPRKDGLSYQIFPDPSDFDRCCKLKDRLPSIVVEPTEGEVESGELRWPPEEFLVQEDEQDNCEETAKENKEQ
UniProt Q969L4: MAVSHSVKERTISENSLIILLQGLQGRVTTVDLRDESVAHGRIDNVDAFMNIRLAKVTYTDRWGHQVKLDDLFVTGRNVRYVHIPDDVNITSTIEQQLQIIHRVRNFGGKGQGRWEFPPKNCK
UniProt O95835: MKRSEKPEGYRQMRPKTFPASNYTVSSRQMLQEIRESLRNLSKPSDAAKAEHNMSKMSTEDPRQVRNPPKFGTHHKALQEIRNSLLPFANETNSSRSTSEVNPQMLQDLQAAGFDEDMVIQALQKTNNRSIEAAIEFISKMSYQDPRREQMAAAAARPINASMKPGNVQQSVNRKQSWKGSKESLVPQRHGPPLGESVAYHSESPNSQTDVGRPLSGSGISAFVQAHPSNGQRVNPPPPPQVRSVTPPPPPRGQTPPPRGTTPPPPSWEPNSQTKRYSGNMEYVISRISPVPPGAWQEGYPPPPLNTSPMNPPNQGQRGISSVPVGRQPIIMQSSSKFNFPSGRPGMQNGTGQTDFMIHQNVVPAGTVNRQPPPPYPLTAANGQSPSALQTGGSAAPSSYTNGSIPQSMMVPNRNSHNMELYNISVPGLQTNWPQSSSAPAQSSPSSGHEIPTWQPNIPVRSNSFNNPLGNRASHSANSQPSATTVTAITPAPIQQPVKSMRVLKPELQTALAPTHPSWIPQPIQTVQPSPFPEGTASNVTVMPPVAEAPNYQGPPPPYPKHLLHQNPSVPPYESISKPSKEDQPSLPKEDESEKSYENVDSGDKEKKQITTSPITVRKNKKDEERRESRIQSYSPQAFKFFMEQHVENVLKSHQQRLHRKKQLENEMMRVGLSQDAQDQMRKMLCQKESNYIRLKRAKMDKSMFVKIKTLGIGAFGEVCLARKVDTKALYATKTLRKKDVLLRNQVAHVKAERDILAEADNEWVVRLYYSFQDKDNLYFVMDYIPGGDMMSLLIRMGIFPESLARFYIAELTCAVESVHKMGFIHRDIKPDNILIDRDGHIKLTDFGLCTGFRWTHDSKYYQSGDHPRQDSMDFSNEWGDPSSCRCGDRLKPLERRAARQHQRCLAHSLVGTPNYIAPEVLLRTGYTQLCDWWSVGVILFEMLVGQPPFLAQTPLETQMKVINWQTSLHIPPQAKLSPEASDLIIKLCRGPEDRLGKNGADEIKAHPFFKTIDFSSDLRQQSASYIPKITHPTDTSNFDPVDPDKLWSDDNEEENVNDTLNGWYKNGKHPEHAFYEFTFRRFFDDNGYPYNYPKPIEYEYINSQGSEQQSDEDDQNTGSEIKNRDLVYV
UniProt Q9BT23: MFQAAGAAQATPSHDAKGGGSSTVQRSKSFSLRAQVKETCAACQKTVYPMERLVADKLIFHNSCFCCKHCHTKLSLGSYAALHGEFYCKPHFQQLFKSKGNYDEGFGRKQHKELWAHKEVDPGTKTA
UniProt A6NK58: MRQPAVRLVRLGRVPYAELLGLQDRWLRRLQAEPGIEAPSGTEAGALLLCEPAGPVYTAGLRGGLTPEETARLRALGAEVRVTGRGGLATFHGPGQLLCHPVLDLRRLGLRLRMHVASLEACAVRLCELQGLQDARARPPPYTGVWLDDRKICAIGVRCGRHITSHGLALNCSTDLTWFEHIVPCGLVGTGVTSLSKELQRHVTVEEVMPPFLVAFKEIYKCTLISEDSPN
UniProt Q96JM4: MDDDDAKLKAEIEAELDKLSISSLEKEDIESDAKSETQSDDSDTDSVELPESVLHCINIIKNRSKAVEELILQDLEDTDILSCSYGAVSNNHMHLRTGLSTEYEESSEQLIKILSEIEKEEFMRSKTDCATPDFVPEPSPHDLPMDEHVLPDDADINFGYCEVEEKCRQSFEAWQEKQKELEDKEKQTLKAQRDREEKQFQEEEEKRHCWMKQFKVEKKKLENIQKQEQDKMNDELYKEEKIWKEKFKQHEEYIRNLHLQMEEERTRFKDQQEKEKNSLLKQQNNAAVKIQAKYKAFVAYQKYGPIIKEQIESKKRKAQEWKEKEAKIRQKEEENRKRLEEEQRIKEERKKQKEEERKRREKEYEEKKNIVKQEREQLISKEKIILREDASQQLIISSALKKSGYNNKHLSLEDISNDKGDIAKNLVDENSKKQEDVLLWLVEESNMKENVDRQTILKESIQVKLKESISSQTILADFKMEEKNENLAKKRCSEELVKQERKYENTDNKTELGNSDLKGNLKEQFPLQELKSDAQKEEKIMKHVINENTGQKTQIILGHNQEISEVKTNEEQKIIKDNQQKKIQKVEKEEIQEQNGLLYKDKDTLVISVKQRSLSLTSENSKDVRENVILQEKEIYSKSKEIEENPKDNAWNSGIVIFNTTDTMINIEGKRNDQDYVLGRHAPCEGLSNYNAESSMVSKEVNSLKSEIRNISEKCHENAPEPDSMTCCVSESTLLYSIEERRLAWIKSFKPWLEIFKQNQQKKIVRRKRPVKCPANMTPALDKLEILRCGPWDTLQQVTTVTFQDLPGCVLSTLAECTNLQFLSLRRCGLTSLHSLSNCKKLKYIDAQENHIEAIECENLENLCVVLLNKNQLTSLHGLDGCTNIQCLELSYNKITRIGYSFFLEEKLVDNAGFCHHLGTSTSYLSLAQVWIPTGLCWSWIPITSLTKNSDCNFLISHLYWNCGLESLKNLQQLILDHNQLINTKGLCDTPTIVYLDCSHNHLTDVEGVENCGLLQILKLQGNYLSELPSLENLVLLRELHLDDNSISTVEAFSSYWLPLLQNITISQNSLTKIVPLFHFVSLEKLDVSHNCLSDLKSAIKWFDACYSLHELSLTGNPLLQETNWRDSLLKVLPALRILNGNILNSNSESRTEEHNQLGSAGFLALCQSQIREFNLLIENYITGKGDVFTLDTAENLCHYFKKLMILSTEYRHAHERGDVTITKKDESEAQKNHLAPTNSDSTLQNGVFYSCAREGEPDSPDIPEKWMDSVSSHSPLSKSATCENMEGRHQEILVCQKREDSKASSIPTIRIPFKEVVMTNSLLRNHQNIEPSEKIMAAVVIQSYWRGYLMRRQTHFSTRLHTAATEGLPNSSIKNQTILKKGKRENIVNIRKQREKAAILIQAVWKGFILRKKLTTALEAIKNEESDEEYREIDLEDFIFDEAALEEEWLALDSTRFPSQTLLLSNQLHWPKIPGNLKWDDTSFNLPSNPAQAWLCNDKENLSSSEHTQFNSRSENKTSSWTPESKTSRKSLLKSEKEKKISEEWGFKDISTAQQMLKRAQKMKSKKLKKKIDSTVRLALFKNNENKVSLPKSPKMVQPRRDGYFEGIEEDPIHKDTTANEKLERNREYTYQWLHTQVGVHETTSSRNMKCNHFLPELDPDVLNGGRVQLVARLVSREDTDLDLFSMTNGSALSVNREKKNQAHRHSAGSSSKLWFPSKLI

Columns and labels:
Assay in all cases: log2 fold change, soluble protein after heating vs DMSO (PISA); higher = thermal stabilisation; K562 lysate, 10 uM; active = over 0.2 and 3.5 SD of the protein, either way, in both replicates (recomputed)
[1] = compound: C/C(=N\NC(=O)C1=CC(=CC=C1)S(=O)(=O)N2CCOCC2)/C3=C(C=CC(=C3)Cl)O
Summary of the method: (§1)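 K562 pellets were dounce-homogenised in PBS pH 7.4 with 1 mM MgCl2, and the crude extract at 1 mg/mL protein was treated with 10 μM compound for 30 min. Aliquots were heated for 3 min across 48°C-58°C, pooled, and brought to 0.5% NP-40 at 4°C; soluble protein was the supernatant after 21,000xg for 90 min. Soluble protein was quantified by TMTpro 16plex LC-MS/MS with channel sums equalised, and reported as log2 fold change in thermal stability against DMSO controls, with values from duplicates.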

[2] = compound: C1=CC2=C(C=CC(=C2)/C=C\3/C(=O)NC(=NCC4=CC=CS4)S3)N=C1
Summary of the method: as §1

[3] = compound: C1=CC2=NC=CN=C2C=C1/C=C/3\C(=O)NC(=O)S3
Summary of the method: as §1

[4] = compound: C1=CC=C(C=C1)C2=NC(=C(N2)C3=CC=NC=C3)C4=CC(=C(C=C4)Cl)O
Summary of the method: as §1

[5] = compound: C1=CC=C2C(=C1)C3=NNC4=CC=CC(=C43)C2=O
Summary of the method: as §1

[6] = compound: C1CCN(C1)C(=O)NC2=CC=CC(=C2)NC3=NC=C(C(=N3)NCCC4=CN=CN4)Br
Summary of the method: as §1

[7] = compound: C1CN(CCC1(CC2=CC=C(C=C2)Cl)N)C3=NC=NC4=C3C=CN4
Summary of the method: as §1

IRAK-1-4 Inhibitor I = compound: C1COCCN1CCN2C3=CC=CC=C3N=C2NC(=O)C4=CC(=CC=C4)[N+](=O)[O-] [IRAK-1-4 Inhibitor I]
Summary of the method: as §1

ibrutinib = compound: C=CC(=O)N1CCC[C@@H](n2nc(-c3ccc(Oc4ccccc4)cc3)c3c(N)ncnc32)C1 [ibrutinib]
Summary of the method: as §1

[8] = compound: CC(=O)c1cnc2ccc(-c3cc(Cl)c(O)c(Cl)c3)nc2c1N[C@H]1CC[C@H](CN(C)C)CC1
Summary of the method: as §1

ralimetinib = compound: CC(C)(C)Cn1c(N)nc2ccc(-c3[nH]c(C(C)(C)C)nc3-c3ccc(F)cc3)nc21 [ralimetinib]
Summary of the method: as §1

[9] = compound: CC(C)(O)CC(=O)NCCn1ccc2ncnc(Nc3ccc(Oc4cccc(C(F)(F)F)c4)c(Cl)c3)c21
Summary of the method: as §1

[10] = compound: CC1=C(C=C(C=C1)NC(=O)C2=CC(=CC=C2)C(C)(C)C#N)NC3=CC4=C(C=C3)N=CN(C4=O)C
Summary of the method: as §1

[11] = compound: CC1=C(C=C(C=C1)NC(=O)C2=CC(=CC=C2)N(C)C)NC(=O)C3=CC=C(C=C3)O
Summary of the method: as §1

[12] = compound: CC1=CC=C(C=C1)SC2=C3C=C(SC3=CN=C2)C(=O)N
Summary of the method: as §1

[13] = compound: CC1=C(C(CC(=O)N1)C2=CC=C(C=C2)C(F)(F)F)C(=O)NC3=C(C=C4C(=C3)C=NN4)F
Summary of the method: as §1

[14] = compound: CC1=C(C2=C(C=C1)C(=O)C3=CC=CC=C3N2CCCN)C
Summary of the method: as §1

erlotinib = compound: C#Cc1cccc(Nc2ncnc3cc(OCCOC)c(OCCOC)cc23)c1 [erlotinib]
Summary of the method: as §1

[15] = compound: C1=CC(=CC=C1C2=NC3=C(N2)C=C(C=C3)C(=O)N)OC4=CC=C(C=C4)Cl
Summary of the method: as §1

[16] = compound: CC(C)C1=C2N=C(C=C(N2N=C1)NCC3=CC=CC=C3)NCCCCCCN
Summary of the method: as §1

Measured: log2 fold change

LRP8 (UniProt Q14114)
inactive: [1] -0.087 | [2] 0.071 | [3] -0.124 | [4] 0.009 | [5] -0.072 | [6] -0.106 | [7] -0.06 | IRAK-1-4 Inhibitor I -0.088 | ibrutinib 0.233 | [8] 0.061 | ralimetinib 0.032 | [9] -0.002 | [10] 0.082 | [11] -0.013 | [12] -0.007

LIMK1 (UniProt P53667)
inactive: [1] 0.114 | [2] -0.088 | [3] 0.133 | [4] -0.002 | [5] 0.029 | [6] 0.068 | [7] -0.05 | IRAK-1-4 Inhibitor I 0.06 | [8] -0.04 | ralimetinib -0.125 | [9] -0.161 | [13] -0.067 | [14] 0.026 | [10] -0.085 | [11] 0.059 | [12] -0.148
active: ibrutinib 0.546

LEF1 (UniProt Q9UJU2)
inactive: [1] -0.173 | [2] -0.07 | [4] -0.05 | [5] -0.041 | IRAK-1-4 Inhibitor I 0.056 | ralimetinib 0.122 | [9] -0.016 | [10] 0.021 | [11] 0.097

LOR (UniProt P23490)
inactive: [3] 0.326 | ibrutinib -0.437

LRP5 (UniProt O75197)
inactive: erlotinib -0.142 | [15] -0.1 | [6] -0.062 | [7] 0.193 | [16] -0.11 | [14] 0.114

LRRC45 (UniProt Q96CN5)
inactive: [14] 0.036

LIG1 isoform 3 (UniProt P18858)
inactive: [4] 0.013 | [6] 0.013 | [7] 0.065 | IRAK-1-4 Inhibitor I 0.102 | ralimetinib -0.086 | [9] -0.126 | [11] 0.036

LITAF (UniProt Q99732)
inactive: erlotinib 0.009 | [15] -0.126 | [4] -0.054 | [6] 0.034 | [7] -0.072 | IRAK-1-4 Inhibitor I 0.011 | [8] -0.013 | ralimetinib -0.026 | [9] 0.061 | [16] -0.063 | [14] 0.057 | [10] 0.06 | [11] 0.066 | [12] -0.066

LCA5 (UniProt Q86VQ0)
inactive: [1] 0.068 | [2] 0.059 | [5] -0.216 | [6] -0.032 | [7] 0.031 | [13] 0.098 | [10] 0.07

LBH (UniProt Q53QV2)
inactive: erlotinib 0.066 | [15] -0.074 | [4] -0.129 | [6] 0.058 | [7] 0.221 | IRAK-1-4 Inhibitor I -0.039 | ralimetinib 0.022 | [9] -0.116 | [16] 0.023 | [14] -0.096 | [11] -0.153

LSM10 (UniProt Q969L4)
inactive: erlotinib 0.04 | [15] 0.16 | [3] 0.058 | [4] -0.013 | IRAK-1-4 Inhibitor I -0.089 | ibrutinib 0.08 | [8] 0.043 | ralimetinib 0.083 | [9] 0.029 | [16] -0.043 | [14] -0.06 | [11] 0.028 | [12] -0.002

LRRC9 (UniProt Q6ZRR7)
inactive: [1] -0.037 | [2] 0.02 | [5] -0.01 | [6] -0.044 | [7] -0.07 | [10] 0.042

LATS1 (UniProt O95835)
inactive: erlotinib -0.035 | [15] -0.127 | [16] 0.011 | [13] 0.315 | [14] 0.069

LIMD2 (UniProt Q9BT23)
inactive: [3] -0.076 | ibrutinib 0.032 | [10] 0.098

LRRC7 (UniProt Q96NW7)
active: [2] -0.493
inactive: [1] 0.042 | [3] -0.108 | [4] 0.065 | [5] 0.038 | [6] 0.02 | [7] 0.067 | IRAK-1-4 Inhibitor I 0.048 | ibrutinib -0.081 | [8] 0.026 | ralimetinib -0.115 | [9] -0.073 | [14] 0.041 | [10] -0.062 | [11] 0.09 | [12] 0.086

LIPT2 (UniProt A6NK58)
inactive: [3] 0.137 | [6] 0.035 | [7] 0.097 | ibrutinib -0.242 | [8] 0.132 | [12] -0.113

LCOR isoform 3 (UniProt Q96JN0)
inactive: [8] 0.134 | [12] -0.065

LRRIQ1 (UniProt Q96JM4)
inactive: [1] 0.038 | [2] -0.003 | [4] 0.041 | [5] -0.003 | IRAK-1-4 Inhibitor I -0.083 | [8] -0.036 | ralimetinib -0.041 | [9] 0.019 | [11] 0.047 | [12] -0.069
active: [10] 0.671

LBHD1 (UniProt Q9BQE6)
inactive: [10] -0.049

Reprinted from the results shown (two entries):
LCOR isoform 3 (UniProt Q96JN0)
inactive: [8] 0.134 | [12] -0.065

LRRIQ1 (UniProt Q96JM4)
inactive: [1] 0.038 | [2] -0.003 | [4] 0.041 | [5] -0.003 | IRAK-1-4 Inhibitor I -0.083 | [8] -0.036 | ralimetinib -0.041 | [9] 0.019 | [11] 0.047 | [12] -0.069
active: [10] 0.671
